Results are given in words; binding and its absence hold for the method and conditions named. Binding seen in cells or lysates may run through a third protein. Sequences can lack the tags named with a protein.

Chains of the proteins cited; added tags and fusions are not shown. Lines headed by an entry give the natural chain unless they say otherwise; changes in a name come on top.
UniProt P04114: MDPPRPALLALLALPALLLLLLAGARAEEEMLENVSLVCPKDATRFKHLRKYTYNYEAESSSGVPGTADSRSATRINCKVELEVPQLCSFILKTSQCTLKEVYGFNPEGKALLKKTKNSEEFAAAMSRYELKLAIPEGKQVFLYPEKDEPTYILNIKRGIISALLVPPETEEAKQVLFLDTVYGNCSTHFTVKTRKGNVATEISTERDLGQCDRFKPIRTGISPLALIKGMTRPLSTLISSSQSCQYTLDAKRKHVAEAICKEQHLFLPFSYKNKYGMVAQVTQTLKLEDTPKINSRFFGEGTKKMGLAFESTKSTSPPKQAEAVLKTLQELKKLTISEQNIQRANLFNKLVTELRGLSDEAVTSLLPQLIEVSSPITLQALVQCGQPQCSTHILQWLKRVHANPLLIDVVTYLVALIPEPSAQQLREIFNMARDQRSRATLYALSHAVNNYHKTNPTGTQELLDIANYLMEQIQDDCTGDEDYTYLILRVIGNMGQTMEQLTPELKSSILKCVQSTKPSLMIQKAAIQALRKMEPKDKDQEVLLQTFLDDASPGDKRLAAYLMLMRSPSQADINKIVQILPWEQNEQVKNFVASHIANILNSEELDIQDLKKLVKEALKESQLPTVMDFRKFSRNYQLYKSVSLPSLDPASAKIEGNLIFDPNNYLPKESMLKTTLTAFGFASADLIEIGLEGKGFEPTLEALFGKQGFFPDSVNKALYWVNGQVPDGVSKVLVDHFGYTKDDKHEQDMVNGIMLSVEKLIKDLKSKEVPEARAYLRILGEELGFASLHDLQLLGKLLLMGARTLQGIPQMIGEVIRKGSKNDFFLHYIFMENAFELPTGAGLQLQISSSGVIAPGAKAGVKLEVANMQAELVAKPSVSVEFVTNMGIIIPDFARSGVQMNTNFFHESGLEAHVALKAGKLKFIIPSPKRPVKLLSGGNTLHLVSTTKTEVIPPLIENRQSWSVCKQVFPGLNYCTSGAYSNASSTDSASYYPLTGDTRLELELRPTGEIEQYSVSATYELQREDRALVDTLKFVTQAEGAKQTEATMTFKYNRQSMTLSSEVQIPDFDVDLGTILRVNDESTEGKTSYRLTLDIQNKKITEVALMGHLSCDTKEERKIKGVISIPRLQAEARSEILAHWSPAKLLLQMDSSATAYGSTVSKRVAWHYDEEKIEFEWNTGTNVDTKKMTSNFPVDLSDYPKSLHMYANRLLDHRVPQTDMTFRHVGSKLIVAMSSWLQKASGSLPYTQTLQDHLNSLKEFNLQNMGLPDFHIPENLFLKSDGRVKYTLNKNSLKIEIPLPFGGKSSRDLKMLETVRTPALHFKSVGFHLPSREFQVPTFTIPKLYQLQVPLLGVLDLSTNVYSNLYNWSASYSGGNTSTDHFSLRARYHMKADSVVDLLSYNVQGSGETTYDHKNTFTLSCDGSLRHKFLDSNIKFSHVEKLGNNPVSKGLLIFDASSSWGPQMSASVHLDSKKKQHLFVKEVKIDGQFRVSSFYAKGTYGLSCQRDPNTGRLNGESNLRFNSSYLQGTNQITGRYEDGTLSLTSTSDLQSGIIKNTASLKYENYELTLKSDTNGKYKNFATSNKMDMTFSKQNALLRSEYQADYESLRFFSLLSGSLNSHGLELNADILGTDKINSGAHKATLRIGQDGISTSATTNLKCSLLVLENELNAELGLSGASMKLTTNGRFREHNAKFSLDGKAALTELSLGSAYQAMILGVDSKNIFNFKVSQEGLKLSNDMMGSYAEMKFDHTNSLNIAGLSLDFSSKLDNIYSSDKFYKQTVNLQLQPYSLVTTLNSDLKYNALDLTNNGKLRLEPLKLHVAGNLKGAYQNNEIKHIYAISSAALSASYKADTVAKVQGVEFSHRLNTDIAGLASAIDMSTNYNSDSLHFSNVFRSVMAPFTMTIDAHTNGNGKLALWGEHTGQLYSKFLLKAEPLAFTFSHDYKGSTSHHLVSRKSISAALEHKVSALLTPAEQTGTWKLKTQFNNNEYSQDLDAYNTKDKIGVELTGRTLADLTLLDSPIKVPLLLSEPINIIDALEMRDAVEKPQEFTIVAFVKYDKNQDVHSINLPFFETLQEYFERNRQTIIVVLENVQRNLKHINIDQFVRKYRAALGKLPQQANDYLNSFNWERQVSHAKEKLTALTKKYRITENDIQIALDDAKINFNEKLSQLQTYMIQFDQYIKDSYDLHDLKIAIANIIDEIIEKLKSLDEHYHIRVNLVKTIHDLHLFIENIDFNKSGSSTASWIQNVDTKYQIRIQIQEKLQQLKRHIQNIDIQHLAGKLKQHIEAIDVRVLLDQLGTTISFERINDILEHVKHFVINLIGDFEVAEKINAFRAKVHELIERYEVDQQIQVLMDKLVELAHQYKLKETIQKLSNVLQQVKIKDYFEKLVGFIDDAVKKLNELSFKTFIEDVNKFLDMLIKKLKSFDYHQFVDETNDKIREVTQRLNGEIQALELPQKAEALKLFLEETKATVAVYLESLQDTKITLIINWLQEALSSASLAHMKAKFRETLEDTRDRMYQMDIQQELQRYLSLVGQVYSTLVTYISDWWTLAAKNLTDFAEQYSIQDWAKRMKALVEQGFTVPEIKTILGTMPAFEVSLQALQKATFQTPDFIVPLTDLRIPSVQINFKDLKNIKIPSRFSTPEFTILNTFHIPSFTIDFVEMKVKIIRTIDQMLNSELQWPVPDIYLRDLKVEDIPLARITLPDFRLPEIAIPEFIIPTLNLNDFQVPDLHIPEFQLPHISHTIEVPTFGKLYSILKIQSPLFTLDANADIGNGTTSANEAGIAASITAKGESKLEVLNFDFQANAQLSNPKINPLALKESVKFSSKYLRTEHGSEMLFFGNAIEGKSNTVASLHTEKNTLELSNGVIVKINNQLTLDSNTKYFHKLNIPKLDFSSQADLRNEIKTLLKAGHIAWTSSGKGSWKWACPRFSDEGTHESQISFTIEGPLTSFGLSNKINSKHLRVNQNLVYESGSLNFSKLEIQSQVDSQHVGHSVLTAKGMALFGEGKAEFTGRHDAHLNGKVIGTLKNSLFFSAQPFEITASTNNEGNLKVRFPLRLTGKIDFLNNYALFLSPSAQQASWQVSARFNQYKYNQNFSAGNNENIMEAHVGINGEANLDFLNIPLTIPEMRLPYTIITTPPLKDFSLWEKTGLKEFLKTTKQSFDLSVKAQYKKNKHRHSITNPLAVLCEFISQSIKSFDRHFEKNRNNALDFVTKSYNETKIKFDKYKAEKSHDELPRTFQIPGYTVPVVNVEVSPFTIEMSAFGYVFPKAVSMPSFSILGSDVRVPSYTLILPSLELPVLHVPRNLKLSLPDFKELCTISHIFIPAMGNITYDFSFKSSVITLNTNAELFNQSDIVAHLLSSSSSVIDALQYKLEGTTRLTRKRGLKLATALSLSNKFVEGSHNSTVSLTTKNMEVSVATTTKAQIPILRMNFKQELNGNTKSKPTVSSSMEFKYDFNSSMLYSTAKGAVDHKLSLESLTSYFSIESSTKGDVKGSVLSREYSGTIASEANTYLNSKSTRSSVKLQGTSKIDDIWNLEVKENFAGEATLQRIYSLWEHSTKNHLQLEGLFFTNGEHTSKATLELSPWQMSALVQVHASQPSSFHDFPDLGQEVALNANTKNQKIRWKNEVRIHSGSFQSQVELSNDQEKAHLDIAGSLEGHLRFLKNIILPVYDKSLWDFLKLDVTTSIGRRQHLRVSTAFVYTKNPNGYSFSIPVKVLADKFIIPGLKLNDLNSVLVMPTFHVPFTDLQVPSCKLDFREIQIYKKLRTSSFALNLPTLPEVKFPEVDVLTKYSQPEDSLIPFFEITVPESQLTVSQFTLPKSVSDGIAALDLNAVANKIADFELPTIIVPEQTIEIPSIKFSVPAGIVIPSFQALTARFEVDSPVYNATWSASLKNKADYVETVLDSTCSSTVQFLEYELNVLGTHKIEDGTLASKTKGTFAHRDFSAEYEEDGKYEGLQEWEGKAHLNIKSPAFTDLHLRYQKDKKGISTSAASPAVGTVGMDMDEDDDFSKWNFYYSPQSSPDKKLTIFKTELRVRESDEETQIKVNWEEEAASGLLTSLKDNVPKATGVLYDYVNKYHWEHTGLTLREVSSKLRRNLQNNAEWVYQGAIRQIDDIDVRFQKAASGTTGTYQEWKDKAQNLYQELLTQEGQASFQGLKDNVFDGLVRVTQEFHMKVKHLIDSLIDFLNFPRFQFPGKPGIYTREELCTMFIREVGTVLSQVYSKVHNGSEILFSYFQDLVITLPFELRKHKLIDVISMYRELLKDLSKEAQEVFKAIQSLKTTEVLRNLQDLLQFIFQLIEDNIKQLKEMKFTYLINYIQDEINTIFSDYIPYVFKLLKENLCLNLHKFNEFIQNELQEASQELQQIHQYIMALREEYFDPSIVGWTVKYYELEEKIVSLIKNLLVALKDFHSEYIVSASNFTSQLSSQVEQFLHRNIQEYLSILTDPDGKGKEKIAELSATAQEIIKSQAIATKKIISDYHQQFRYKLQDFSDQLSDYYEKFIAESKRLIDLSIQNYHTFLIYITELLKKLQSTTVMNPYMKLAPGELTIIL

In this assay the target is FLAG-tagged APOB48 (UniProt P04114). Description: co-IP; Huh7 cells co-transfected, harvested after 48 h; lysates in PBS, 0.1% NP-40 incubated with anti-FLAG or anti-MYC beads at 4°C for 2 h; immunoblotting. On the technique in general: Immunoblotting shows a protein as a band on a membrane.

B1: Myc-tagged ERLIN1 (protein, UniProt O75477 1-348)
chain: MNMTQARVLVAAVVGLVAVLLYASIHKIEEGHLAVYYRGGALLTSPSGPGYHIMLPFITTFRSVQTTLQTDEVKNVPCGTSGGVMIYIDRIEVVNMLAPYAVFDIVRNYTADYDKTLIFNKIHHELNQFCSAHTLQEVYIELFDQIDENLKQALQKDLNLMAPGLTIQAVRVTKPKIPEAIRRNFELMEAEKTKLLIAAQKQKVVEKEAETERKKAVIEAEKIAQVAKIRFQQKVMEKETEKRISEIEDAAFLAREKAKADAEYYAAHKYATSNKHKLTPEYLELKKYQAIASNSKIYFGSNIPNMFVDSSCALKYSDIRTGRESSLPSKEALEPSGENVIQNKESTG
Consider B1, for which the binding entry was “no binding”.

B2: Myc-tagged ERLIN2 (protein, UniProt O94905 1-339)
chain: MAQLGAVVAVASSFFCASLFSAVHKIEEGHIGVYYRGGALLTSTSGPGFHLMLPFITSYKSVQTTLQTDEVKNVPCGTSGGVMIYFDRIEVVNFLVPNAVYDIVKNYTADYDKALIFNKIHHELNQFCSVHTLQEVYIELFDQIDENLKLALQQDLTSMAPGLVIQAVRVTKPNIPEAIRRNYELMESEKTKLLIAAQKQKVVEKEAETERKKALIEAEKVAQVAEITYGQKVMEKETEKKISEIEDAAFLAREKAKADAECYTAMKIAEANKLKLTPEYLQLMKYKAIASNSKIYFGKDIPNMFMDSAGSVSKQFEGLADKLSFGLEDEPLETATKEN
With B2, the binding entry was “no binding”.
